Results taken from article PMC9972945.
Results are given in words; binding and its absence hold for the method and conditions named. In cells and extracts the contact can be indirect. Some binding calls cover weakened binding; strength is not graded here.

The chains behind the UniProt entries cited, without tags or fusion partners. Residues count along the entry.
UniProt Q14416, residues 19-872: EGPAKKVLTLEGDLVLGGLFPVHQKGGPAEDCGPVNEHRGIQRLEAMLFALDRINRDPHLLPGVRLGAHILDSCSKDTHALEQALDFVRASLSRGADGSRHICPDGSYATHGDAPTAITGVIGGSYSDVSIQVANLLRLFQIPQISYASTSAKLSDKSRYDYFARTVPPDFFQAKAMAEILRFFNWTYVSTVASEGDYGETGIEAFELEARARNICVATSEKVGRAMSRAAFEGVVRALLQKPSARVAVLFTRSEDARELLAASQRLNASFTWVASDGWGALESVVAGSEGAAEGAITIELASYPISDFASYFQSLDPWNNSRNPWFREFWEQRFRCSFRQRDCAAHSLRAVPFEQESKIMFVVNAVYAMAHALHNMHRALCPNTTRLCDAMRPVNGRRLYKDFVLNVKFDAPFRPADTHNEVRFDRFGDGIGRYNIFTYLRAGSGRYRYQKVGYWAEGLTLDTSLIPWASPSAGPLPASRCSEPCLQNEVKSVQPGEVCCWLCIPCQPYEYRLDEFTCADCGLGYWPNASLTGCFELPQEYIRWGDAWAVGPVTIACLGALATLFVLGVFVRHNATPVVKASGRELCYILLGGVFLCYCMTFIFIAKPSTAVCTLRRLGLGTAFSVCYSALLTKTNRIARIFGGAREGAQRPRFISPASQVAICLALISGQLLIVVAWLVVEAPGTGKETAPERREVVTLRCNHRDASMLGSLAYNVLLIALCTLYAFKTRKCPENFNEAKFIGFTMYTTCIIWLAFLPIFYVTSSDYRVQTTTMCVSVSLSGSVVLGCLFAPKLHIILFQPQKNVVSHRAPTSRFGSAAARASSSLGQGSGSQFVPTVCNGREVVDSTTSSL
UniProt P03524, residues 20-524: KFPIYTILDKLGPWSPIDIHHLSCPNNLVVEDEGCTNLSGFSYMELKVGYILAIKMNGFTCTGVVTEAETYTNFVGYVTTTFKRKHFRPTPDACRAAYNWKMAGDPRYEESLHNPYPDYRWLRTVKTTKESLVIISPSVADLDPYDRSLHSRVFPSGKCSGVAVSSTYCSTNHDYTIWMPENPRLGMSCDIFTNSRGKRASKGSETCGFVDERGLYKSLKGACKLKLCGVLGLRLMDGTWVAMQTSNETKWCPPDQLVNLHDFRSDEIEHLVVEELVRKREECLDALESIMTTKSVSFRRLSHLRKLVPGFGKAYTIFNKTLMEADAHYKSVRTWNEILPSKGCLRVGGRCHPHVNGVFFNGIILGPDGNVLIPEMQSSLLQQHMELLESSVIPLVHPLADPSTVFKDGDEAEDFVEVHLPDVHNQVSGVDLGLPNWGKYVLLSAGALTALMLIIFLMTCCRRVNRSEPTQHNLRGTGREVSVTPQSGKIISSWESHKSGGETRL

Biological target: Flag-tagged mGluR2 protein (mGluR2-Flag) (UniProt Q14416)
Test: pull-down; only the target purified

ERA G-Myc (from UniProt P03524 20-524)
binding: binds
